Reference: paper PMC8395040 (International Journal of Molecular Sciences, 2021)

Tests used:
Format in all cases: cell-based, human
AsPC-1 = assay: MTT cytotoxicity assay, AsPC-1; conditions: IC50 HEK293/IC50 AsPC-1; HEK >50 taken as 50 µM
Procedure: (§1) Cytotoxicity assays were performed by using the MTT reduction method as described previously. Briefly, cancer cell lines were plated in flat-bottom 96-well plates at a cell concentration of 5 × 10^3 cells/well for the fastest growing lines, such as HEK293 and HT29 cells and 1 × 10^4 cells/well for more slowly growing lines, such as HCT116, H1975, BxPC-3, AsPC-1, B16-F10 and DAOY. Then, cells were incubated with the synthesised compounds at different concentrations (from 0.05 to 50 µM) in 200 µL with 10% FBS in RPMI 1640 or DMEM F12 culture medium at 37 °C for 72 h. Later, 10 µL of MTT were added at a final concentration of 0.5 mg/mL, incubated at 37 °C for 4 h, and then solubilised with 10% sodium dodecyl sulphate (SDS) in 0.1 mM HCl and incubated overnight at 37 °C. Formazan formation was measured at 570 nm in a multiwell plate reader (Cytation 5, Biotek Instruments, Winooski, VT, USA). Three independent biological replicates were performed.

H1975 = assay: MTT cytotoxicity assay, H1975; conditions: IC50 HEK293/IC50 H1975; HEK >50 taken as 50 µM
Procedure: as §1

HCT116 = assay: MTT cytotoxicity assay, HCT116; conditions: IC50 HEK293/IC50 HCT116; HEK >50 taken as 50 µM
Procedure: as §1

HT29 = assay: MTT cytotoxicity assay, HT29; conditions: IC50 HEK293/IC50 HT29; HEK >50 taken as 50 µM
Procedure: as §1

BxPC-3 = assay: MTT cytotoxicity assay, BxPC-3; conditions: IC50 HEK293/IC50 BxPC-3; HEK >50 taken as 50 µM
Procedure: as §1

Structure (SMILES)	SI AsPC-1 (AsPC-1)	SI H1975 (H1975)	SI HCT116 (HCT116)	SI HT29 (HT29)	SI BxPC-3 (BxPC-3)
CCCCCn1cnc2c(-c3ccc(OC(F)(F)F)cc3)nc(NC3CCCCC3)nc21 [Compound 4e, N-cyclohexyl-9-pentyl-6-(4-(trifluoromethoxy)phenyl)-9H-purin-2-amine]	1.0	2.2	–	–	–
CCCCCn1cnc2c(-c3ccc(OC(F)(F)F)cc3)nc(NCC3CCCCC3)nc21 [Compound 4h, N-(cyclohexylmethyl)-9-pentyl-6-(4-(trifluoromethoxy)phenyl)-9H-purin-2-amine]	1.0	1.3	–	–	–
O=c1[nH]cc(F)c(=O)[nH]1 [Compound 5-FU, 5-fluorouracil, reference compound]	–	–	0.03	1.6	–
CCCCCn1cnc2c(-c3ccc(OC(F)(F)F)cc3)nc(N3CCN(c4ccncc4)CC3)nc21 [Compound 4r, 9-Pentyl-2-(4-(pyridin-4-yl)piperazin-1-yl)-6-(4-(trifluoromethoxy)phenyl)-9H-purine]	1.0	6.5	2.6	–	–
COc1cc([C@@H]2c3cc4c(cc3[C@@H](O[C@@H]3O[C@@H]5CO[C@@H](C)O[C@H]5[C@H](O)[C@H]3O)[C@H]3COC(=O)[C@H]23)OCO4)cc(OC)c1O [Etoposide, reference compound]	–	0.2	0.9	–	–
Nc1ccn([C@@H]2O[C@H](CO)[C@@H](O)C2(F)F)c(=O)n1 [Gemcitabine, reference compound]	25	–	–	–	38
CCCCn1cnc2c(-c3ccc(OC(F)(F)F)cc3)nc(NC3CCCC3)nc21 [Compound 4a, 9-Butyl-N-cyclopentyl-6-(4-(trifluoromethoxy)phenyl)-9H-purin-2-amine]	2.5	1.5	1.6	–	–
CCCCCCn1cnc2c(-c3ccc(OC(F)(F)F)cc3)nc(NC3CCCC3)nc21 [Compound 4c, N-cyclopentyl-9-hexyl-6-(4-(trifluoromethoxy)phenyl)-9H-purin-2-amine]	1.0	2.6	–	–	–
CCCCCCn1cnc2c(-c3ccc(OC(F)(F)F)cc3)nc(N3CCN(c4ccncc4)CC3)nc21 [Compound 4s, 9-Hexyl-2-(4-(pyridin-4-yl)piperazin-1-yl)-6-(4-(trifluoromethoxy)phenyl)-9H-purine]	29 and >29	33	38	3.3	12

“And” between values parts separate entries of the source, which are not always exact repeats. Identical values can stand only once.
